# Assay results as given in PubChem BioAssay AID504834 (National Center for Advancing Translational Sciences (NCATS), 2011).
# The campaign covered roughly 320,000 compounds. About 22,000 (6.9%) were called active. Inconclusive means that the source gave no clear call. Such entries were picked first, then a sample of the others. The call rests on the fitted dose curve; in most records, active means well fitted inhibition curve with a large enough effect; inconclusive means small, poorly fitted or top-dose-only effect, or another doubt; inactive means no such curve, though single readings can be large or run the other way. Potencies beside an inconclusive call are fits to weak or partial responses and may not hold up.
# Assay: Primary qHTS for delayed death inhibitors of the malarial parasite plastid, 96 hour incubation
# Settings: P. falciparum luciferase reporter growth; series mostly up to 28.7 µM; activity change, negative = inhibition: at the top concentration
# How it was run: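 Cell-based qHTS: luciferase-tagged P. falciparum in erythrocytes (2% hematocrit, 0.05% parasitemia final) incubated with compounds for 96 hours, 37 C, 5% CO2; luciferase detection reagent then added and luminescence measured.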
# On the % scale 0 is the no-effect control and ±100 the full control effect; potency means the concentration at half of the fitted maximal effect.
SMILES,"activity change, negative = inhibition",Potency
CC(=O)CCCC(NS(=O)(=O)CCC(Cl)(Cl)Cl)c1ccccc1 (centres undefined),inactive: -22.6%,
COc1ccc([C@H]2CC(=O)C=C(c3ccc(NC(C)=O)cc3)C2)cc1OC,,"inconclusive: 5.86 µM [inhibitor, single point]"
O=C(/C=C/c1ccc([N+](=O)[O-])o1)NNC(=O)c1ccc(F)cc1,,"inconclusive: 11.7 µM [inhibitor, partial curve]"
O=C(NC(=S)NCc1ccco1)c1ccc(Br)cc1,inactive: 16.7%,
Cc1ccc(-n2ncc3c(=O)n(CC#N)cnc32)cc1,,"inconclusive: 0.0415 µM [inhibitor, full curve, poor fit]"
COc1ccc(S(=O)(=O)N/N=C\c2ccc([N+](=O)[O-])o2)c(OC)c1,,active: 10.4 µM
O=C(OCC(F)(F)F)c1cccc(COc2ccc3ccccc3c2)c1,inactive: 243%,
O=C(CSc1nc2ccccc2c(=O)[nH]1)Nc1nc(-c2ccc(Br)cc2)cs1,,"inconclusive: 13.1 µM [inhibitor, single point]"
Cc1noc(C)c1COc1cccc(C(=O)NCc2cccc(Cl)c2)c1,,"inconclusive: 8.28 µM [inhibitor, partial curve, poor fit]"
Cc1nn(-c2cccc(Cl)c2)c2nc(-c3ccncc3)cc(C(=O)N3CCOCC3)c12,,active: 6.57 µM
N#Cc1cnn2c(-c3cccc([N+](=O)[O-])c3)ccnc12,,"inconclusive: 11.7 µM [inhibitor, single point]"
Cc1[nH]c2ccccc2c1Cc1nnc(SCc2ccccc2)o1,,"inconclusive: 18.5 µM [inhibitor, partial curve, poor fit]"
CC(C)Oc1ccc(Nc2ncnc3ccccc23)cc1,,"inconclusive: 18.5 µM [inhibitor, single point]"
O=C(Nc1ccccc1Cl)C1CCN(S(=O)(=O)c2cccc3nonc23)CC1,,"inconclusive: 7.38 µM [inhibitor, partial curve, poor fit]"
Cc1cccc(CN2CCN(c3ccc(Cl)cc3)CC2)c1,,"inconclusive: 18.5 µM [inhibitor, single point]"
COCCN(CC(=O)NC1CCCCC1)C(=O)CCCC(=O)Nc1ccccn1,,"inconclusive: 4.15 µM [inhibitor, partial curve, poor fit]"
O=c1[nH]c(SCc2ccccc2)nc2c1sc1ccccc12,,"inconclusive: 0.738 µM [inhibitor, full curve, poor fit]"
Clc1ccc2nc(-c3cccc(SC4CCCCC4)c3)c(NCc3ccccc3)n2c1,,active: 3.7 µM
O=C(CNC(=O)Cc1ccc(Cl)cc1)NCC(=O)N1CCCCC1,,"inconclusive: 8.28 µM [inhibitor, single point]"
CCc1ccc(C(=O)COC(=O)C(CCSC)NC(=O)C23CC4CC(CC(C4)C2)C3)cc1 (centres undefined),,"inconclusive: 14.7 µM [inhibitor, partial curve, poor fit]"
CCn1c(C)nc2cc(-c3nnc(-c4c(-c5ccccc5)noc4C)o3)ccc21,inactive: -3.38%,
N#C/C(=C/c1ccncc1)c1nc2ccccc2s1,inactive: 31.2%,
CN1C2CCC1/C(=C/c1cccn1C)C(=O)/C2=C\c1cccn1C,inactive: -2.06%,

SMILES,"activity change, negative = inhibition",Potency
Cc1cc(=O)oc2cc(OCC(=O)Nc3ccc(CN4CCOCC4)cc3)c(Cl)cc12,inactive: 17.7%,
Cc1ccc(NC(=O)C2CCCN(S(=O)(=O)c3ccc4c(c3)oc(=O)n4C)C2)nc1 (centres undefined),inactive: -8.91%,
CCN1CCN(c2ccc(S(=O)(=O)N3CCCCC3)cc2NC(=O)/C=C/c2ccc(OC(F)F)cc2)CC1,,active: 4.15 µM
COc1ccc(S(=O)(=O)NCCSc2ccccc2)cc1OC,,"inconclusive: 11.7 µM [inhibitor, partial curve, poor fit]"
CCCn1c(NC(=S)Nc2ccccc2)nc2ccccc21,inactive: 42.3%,
C/C(=N\NC(=O)c1ccccc1O)C1CC1,inactive: 1.34%,
COC(=O)C1=CN(Cc2ccc(OC)cc2)C=C(C(=O)OC)C1c1cc(OC)c(OC)c(OC)c1,,"inconclusive: 6.57 µM [inhibitor, partial curve, poor fit]"
COc1cccc(C(=O)NC2CC3CCCC(C2)N3CC(=O)Nc2ccc(N(C)C)cc2)c1 (centres undefined),,active: 11.7 µM
CCOC(=O)[C@@H](C)N(Cc1ccc(OC)cc1)S(=O)(=O)N(Cc1ccccc1)[C@H](C(=O)OC)C(C)C,,"inconclusive: 2.08 µM [inhibitor, partial curve, poor fit]"
Cc1ccccc1N1CCN(C2CCCN(C(=O)c3cn4c(C)cccc4n3)C2)CC1 (centres undefined),inactive: 20.5%,
CC1=C(C(=O)NC(C)c2ccc3c(c2)OCCO3)C2(CCC(C)CC2)OC1=O (centres undefined),,active: 10.4 µM
COc1cccc2sc(Nc3nc4ccc(NC(C)=O)cc4s3)nc12,,"inconclusive: 0.828 µM [inhibitor, full curve, poor fit]"
COc1cc2cc(CN(Cc3cccnc3)C(=O)Nc3ccccc3F)c(=O)[nH]c2cc1OC,inactive: 22.1%,
Cc1ccc(C(=O)NCc2ccccc2)cc1Br,,"inconclusive: 16.5 µM [inhibitor, partial curve, poor fit]"
C[C@H](NC(=O)OC(C)(C)C)c1nnc(SCC(=O)c2ccc(Cl)cc2)o1,,"inconclusive: 1.17 µM [inhibitor, full curve]"
Cc1ccc(CCSCC(=O)O)cn1,inactive: 2.45%,
CNC(=O)COC(=O)c1cc(-c2ccccc2)nn1-c1ccccc1,inactive: -0.305%,
O=[N+]([O-])c1ccc(O)c(/C=N/NC2=NS(=O)(=O)c3ccccc32)c1,inactive: 5.21% [at 5.75 µM],
CCN(c1ccccc1)S(=O)(=O)c1ccc2c(c1)N(C(C)=O)CCS2,,"inconclusive: 11.7 µM [inhibitor, single point]"
C/C(=N\Nc1cccc2ccccc12)c1c(O)n(Cc2ccccc2)c(=O)[nH]c1=O,,"inconclusive: 2.62 µM [inhibitor, partial curve, poor fit]"
COc1cc(OC)c2c(-c3ccccc3)cc(=O)oc2c1C(CC(=O)N1CCCC1)c1ccc2c(c1)OCO2 (centres undefined),,"inconclusive: 13.1 µM [inhibitor, single point]"
COc1ccc(-c2cn3cccc(C)c3n2)cc1Br,inactive: -33.3%,
CC(Cc1ccsc1)NC(=O)CCc1nnc(CCc2ccccc2)o1 (centres undefined),,"inconclusive: 18.5 µM [inhibitor, single point]"

SMILES,"activity change, negative = inhibition",Potency
O=C(COC(=O)c1ccc(OC(F)(F)F)cc1)NCCN1C(=O)CSC1=O,inactive: -5.56%,
CCS(=O)(=O)C1=NN2C(=N)/C(=C\c3ccc(OS(=O)(=O)c4ccccc4)c(OC)c3)C(=O)N=C2S1,,active: 9.28 µM
C=C(C)CSc1nnc2n(Cc3ccccc3)c(=O)c3c4c(sc3n12)CCC4,,"inconclusive: 0.0023 µM [inhibitor, full curve, poor fit]"
O=[N+]([O-])c1ccc(N2CCN(c3ccccc3F)CC2)c(S(=O)(=O)N2CCOCC2)c1,,"inconclusive: 18.5 µM [inhibitor, single point]"
CCOC(=O)N1CCN(c2ncnc3c2oc2nc(C(C)C)c4c(c23)CCC4)CC1,inactive: -23.3%,
Cc1ccc(C)c(SCC(=O)Nc2ccc(S(=O)(=O)Nc3ncccn3)cc2)c1,inactive: 19.6%,
O=S(=O)(c1cccc2cccnc12)N1CCCc2ccccc21,,"inconclusive: 9.28 µM [inhibitor, single point]"
Cn1c(CNc2nc3ccccc3n2CCN2CCCCC2)nc2ccccc21,,active: 2.62 µM
CCOc1ccc2oc(C(=O)OCC(=O)N3C(C)CCCC3C)c(C)c2c1 (centres undefined),,"inconclusive: 10.4 µM [inhibitor, single point]"
CCOc1cc(/C=N/NC(=O)c2nnn(-c3nonc3N)c2C)ccc1OCc1ccc(F)cc1,,"inconclusive: 4.15 µM [inhibitor, partial curve, poor fit]"
Oc1ccc(C[C@H]2CNCCN2CCc2cc(C(F)(F)F)cc(C(F)(F)F)c2)cc1,,"inconclusive: 11.7 µM [inhibitor, single point]"
COCCC(=O)N1CCC(Oc2ccc(C(=O)NCCC3=CCCCC3)cc2)CC1,,"inconclusive: 16.5 µM [inhibitor, single point]"
CCOC(=O)C1C(=O)C=C(c2ccc(NS(C)(=O)=O)cc2)CC1c1ccco1 (centres undefined),,"inconclusive: 4.15 µM [inhibitor, single point]"
CC(=O)Nc1ccc(NC(=O)C(C)OC(=O)c2ccc3c(c2)OCCO3)cc1 (centres undefined),,"inconclusive: 4.15 µM [inhibitor, single point]"
CCCC(C)c1nnc(NC(=O)C(=O)OCC)s1 (centres undefined),,"inconclusive: 3.29 µM [inhibitor, partial curve, poor fit]"
O=C(NC1CCCC1)c1ccc(COCC(F)(F)F)o1,,"inconclusive: 8.28 µM [inhibitor, partial curve, poor fit]"
CC(=O)Nc1ccc(C(=O)Nc2cccc(S(=O)(=O)NC3=NCCC3)c2)cc1,,"inconclusive: 13.1 µM [inhibitor, single point]"
Cc1ccc(S(=O)(=O)c2nc(-c3ccc(F)cc3)oc2SCC(=O)NCC2CCCO2)cc1 (centres undefined),inactive: -0.585%,
CCN(CC)CCCNC(=O)CNC(=S)N(CCCN1CCOCC1)Cc1cccs1,,"inconclusive: 18.5 µM [inhibitor, single point]"
O=[N+]([O-])c1ccc(C2Oc3ccccc3C3CC(c4ccccc4)=NN32)s1 (centres undefined),,"inconclusive: 1.17 µM [inhibitor, full curve]"
COc1cc(NC(=O)CN2C(=O)NC(c3ccccc3)(c3ccccc3)C2=O)cc(OC)c1,inactive: 11.8%,
Cc1ccc(S(=O)(=O)N(C(=O)c2ccco2)c2cc3sc(=O)oc3c3ccccc23)cc1,,active: 11.7 µM
CCCC(C)NC(=O)c1cc(S(=O)(=O)N2CCCCCC2)ccc1OC (centres undefined),,"inconclusive: 18.5 µM [inhibitor, single point]"

# Ordered by number of heavy atoms (falling): 4 of the compounds above.
SMILES,"activity change, negative = inhibition",Potency
O=[N+]([O-])c1ccc(N2CCN(c3ccccc3F)CC2)c(S(=O)(=O)N2CCOCC2)c1,,"inconclusive: 18.5 µM [inhibitor, single point]"
COCCC(=O)N1CCC(Oc2ccc(C(=O)NCCC3=CCCCC3)cc2)CC1,,"inconclusive: 16.5 µM [inhibitor, single point]"
COc1cccc2sc(Nc3nc4ccc(NC(C)=O)cc4s3)nc12,,"inconclusive: 0.828 µM [inhibitor, full curve, poor fit]"
O=C(NC(=S)NCc1ccco1)c1ccc(Br)cc1,inactive: 16.7%,
